The values below are quoted from earlier work in PMC5316403, “A multicenter assessment of single-cell models aligned to standard measures of cell health for prediction of acute hepatotoxicity” (Archives of Toxicology, 2016).

This data set deals with man. Conditions: reported to cause hepatotoxicity in man or not; ref references in Table 4; cited from earlier work.

`CCCCc1oc2ccccc2c1C(=O)c1cc(I)c(OCCN(CC)CC)c(I)c1` [Amiodarone]: the Hepatotoxic/non-hepatotoxic entry is given as “Hepatotoxic”.
